The values below come from publication PMC8346560.

Assay [1] concerns the target T1, Dpb4^A62S-HA (S. cerevisiae) (UniProt Q04603).
T1 sequence: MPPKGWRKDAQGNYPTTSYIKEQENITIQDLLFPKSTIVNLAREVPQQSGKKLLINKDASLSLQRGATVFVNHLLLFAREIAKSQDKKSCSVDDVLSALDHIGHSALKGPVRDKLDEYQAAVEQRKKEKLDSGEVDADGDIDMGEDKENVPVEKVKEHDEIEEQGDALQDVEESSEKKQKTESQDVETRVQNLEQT
The experiment in a line: co-IP; total yeast protein extracts (50 mM HEPES pH 7.5, 300 mM NaCl, 20% glycerol); 2 h at 4 °C with Protein G-Dynabeads and anti-HA (12CA5); western blot with anti-HA or anti-Myc (9E10). (In general: Immunoblotting shows a protein as a band on a membrane.)

For assay [2], the target named is T2, Dpb4-HA (S. cerevisiae) (UniProt Q04603).
T2 sequence: T1 sequence with S62A
The assay is described as above.

Assay [3] concerns the target T3, Dpb4^A62S with C-terminal 6xHis-Tag (S. cerevisiae) (UniProt Q04603).
T3 sequence: T1 sequence
Description: tandem affinity co-purification (IMAC then Strep-Tactin); Dpb4-6xHis and Strep-tagged partner co-expressed in E. coli BL21 (DE3); extract purified by immobilized metal affinity chromatography, then on Strep-Tactin resin.

In assay [4] the target is T4, Dpb4 with C-terminal 6xHis-Tag (S. cerevisiae) (UniProt Q04603).
T4 sequence: T1 sequence with S62A
The assay is described as above.

The target of assay [5] is T5, Dls1-HA (S. cerevisiae) (UniProt P40366).
T5 sequence: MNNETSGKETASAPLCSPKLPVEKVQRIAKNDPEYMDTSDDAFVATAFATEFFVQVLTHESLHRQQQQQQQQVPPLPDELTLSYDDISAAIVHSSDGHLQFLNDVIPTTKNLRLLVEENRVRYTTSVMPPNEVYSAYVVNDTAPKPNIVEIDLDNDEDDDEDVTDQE
Description: co-IP; total yeast protein extracts (50 mM HEPES pH 7.5, 300 mM NaCl, 20% glycerol); 2 h at 4 °C with Protein G-Dynabeads and anti-HA (12CA5); western blot with anti-HA or anti-Myc (9E10).

The target of assay [6] is T6, Rad9 (S. cerevisiae) (UniProt P14737).
T6 sequence: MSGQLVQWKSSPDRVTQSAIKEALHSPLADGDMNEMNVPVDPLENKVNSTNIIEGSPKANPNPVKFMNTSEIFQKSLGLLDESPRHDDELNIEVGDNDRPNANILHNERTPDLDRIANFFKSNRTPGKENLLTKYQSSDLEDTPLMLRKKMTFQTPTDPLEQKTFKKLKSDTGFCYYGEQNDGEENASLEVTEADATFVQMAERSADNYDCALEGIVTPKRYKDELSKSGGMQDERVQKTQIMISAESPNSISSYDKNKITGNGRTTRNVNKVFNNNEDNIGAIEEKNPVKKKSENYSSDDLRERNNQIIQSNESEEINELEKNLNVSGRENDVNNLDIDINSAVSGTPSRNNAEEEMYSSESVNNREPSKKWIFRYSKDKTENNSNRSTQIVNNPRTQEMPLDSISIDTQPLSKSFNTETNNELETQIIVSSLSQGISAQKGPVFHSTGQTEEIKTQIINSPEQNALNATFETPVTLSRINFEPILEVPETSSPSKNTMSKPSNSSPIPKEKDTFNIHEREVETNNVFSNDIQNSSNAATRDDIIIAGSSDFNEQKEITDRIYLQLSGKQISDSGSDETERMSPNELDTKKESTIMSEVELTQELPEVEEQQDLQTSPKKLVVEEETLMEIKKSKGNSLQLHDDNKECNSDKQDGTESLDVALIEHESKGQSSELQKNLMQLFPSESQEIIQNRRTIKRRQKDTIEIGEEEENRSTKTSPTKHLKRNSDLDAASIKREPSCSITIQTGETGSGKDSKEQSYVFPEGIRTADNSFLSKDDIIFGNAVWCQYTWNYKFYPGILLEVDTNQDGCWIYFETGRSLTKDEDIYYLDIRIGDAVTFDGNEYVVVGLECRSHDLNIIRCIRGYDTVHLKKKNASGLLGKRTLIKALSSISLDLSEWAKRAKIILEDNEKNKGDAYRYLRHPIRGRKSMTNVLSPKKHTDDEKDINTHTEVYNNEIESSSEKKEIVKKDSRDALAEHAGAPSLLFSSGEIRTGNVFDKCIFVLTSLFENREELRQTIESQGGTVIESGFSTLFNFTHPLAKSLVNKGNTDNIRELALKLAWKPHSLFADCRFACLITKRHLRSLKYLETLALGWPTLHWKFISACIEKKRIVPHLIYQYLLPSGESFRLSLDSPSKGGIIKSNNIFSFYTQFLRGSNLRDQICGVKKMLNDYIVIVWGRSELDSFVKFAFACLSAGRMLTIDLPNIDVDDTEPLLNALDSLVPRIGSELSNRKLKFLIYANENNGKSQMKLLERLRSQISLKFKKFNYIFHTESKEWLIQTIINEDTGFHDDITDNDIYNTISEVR
Description: co-IP; coimmunoprecipitation of Dpb4 and Rad9, told only in the discussion; no figure or conditions given.

Assay [7] addresses T7, Dls1 with C-terminal Strep-Tag (S. cerevisiae) (UniProt P40366).
T7 sequence: T5 sequence
Description: tandem affinity co-purification (IMAC then Strep-Tactin); Dpb4-6xHis and Strep-tagged partner co-expressed in E. coli BL21 (DE3); extract purified by immobilized metal affinity chromatography, then on Strep-Tactin resin.

Residue numbers refer to the chain shown, from its start. Numbers in names are those of the source. These are yes or no findings as the source states them, for the method shown. For part of these data: Binding seen in cells or lysates may run through a third protein. Some results given as binding are weak or reduced against the parent protein; the word gives no strength. For part of these data: Tags and fused reporters may be left off the sequences shown.

B1: Dpb3-Myc (protein, UniProt P27344 1-201)
chain: MSNLVKEKAPVFPISKVKKIAKCDPEYVITSNVAISATAFAAELFVQNLVEESLVLAQLNSKGKTSLRLSLNSIEECVEKRDNFRFLEDAIKQLKKNSALDKKRELNMQPGRSDQEVVIEEPELHEDDGVEEEEEEDEVSEEEEPVHNEELLDDSKDQQNDKSTRSVASLLSRFQYKSALDVGEHSDSSDIEVDHTKSTDP
As to B1, the binding result in assay [1] and in assay [2] was “binds” each time.

B2: Dpb3 with C-terminal Strep-Tag (protein, UniProt P27344 1-201)
chain: B1 chain
Consider B2, for which the binding result in assay [3] and in assay [4] was “binds” throughout.

B3: Dpb4-Myc (protein, UniProt Q04603 1-196)
chain: T1 sequence with S62A
For B3, in assay [5], the binding result was “binds”.

B4: Dpb4 (protein, UniProt Q04603 1-196)
chain: T1 sequence with S62A
Take B4: in assay [6], the binding result is reported as “no binding”.

B5: Dpb4 with C-terminal 6xHis-Tag (protein, UniProt Q04603 1-196)
chain: T1 sequence with S62A
Consider B5, for which the binding entry in assay [7] was “binds”.

B6: Dpb4^A62S-Myc (protein, UniProt Q04603 1-196)
chain: T1 sequence
Consider B6, for which, in assay [5], the binding result was “binds”.

B7: Dpb4^A62S with C-terminal 6xHis-Tag (protein, UniProt Q04603 1-196)
chain: T1 sequence
Regarding B7, in assay [7], the binding result is on record as “binds”.
